Measured values as given in PMC9950126.
Results are given in words; binding and its absence hold for the method and conditions named. In cells and extracts the contact can be indirect. Some binding calls cover weakened binding; strength is not graded here. Values belong to the substance of their own block, whether it stands above or below them.

Protein sequences, listed by entry. Tags and fused reporters are not part of them.
UniProt Q969H0: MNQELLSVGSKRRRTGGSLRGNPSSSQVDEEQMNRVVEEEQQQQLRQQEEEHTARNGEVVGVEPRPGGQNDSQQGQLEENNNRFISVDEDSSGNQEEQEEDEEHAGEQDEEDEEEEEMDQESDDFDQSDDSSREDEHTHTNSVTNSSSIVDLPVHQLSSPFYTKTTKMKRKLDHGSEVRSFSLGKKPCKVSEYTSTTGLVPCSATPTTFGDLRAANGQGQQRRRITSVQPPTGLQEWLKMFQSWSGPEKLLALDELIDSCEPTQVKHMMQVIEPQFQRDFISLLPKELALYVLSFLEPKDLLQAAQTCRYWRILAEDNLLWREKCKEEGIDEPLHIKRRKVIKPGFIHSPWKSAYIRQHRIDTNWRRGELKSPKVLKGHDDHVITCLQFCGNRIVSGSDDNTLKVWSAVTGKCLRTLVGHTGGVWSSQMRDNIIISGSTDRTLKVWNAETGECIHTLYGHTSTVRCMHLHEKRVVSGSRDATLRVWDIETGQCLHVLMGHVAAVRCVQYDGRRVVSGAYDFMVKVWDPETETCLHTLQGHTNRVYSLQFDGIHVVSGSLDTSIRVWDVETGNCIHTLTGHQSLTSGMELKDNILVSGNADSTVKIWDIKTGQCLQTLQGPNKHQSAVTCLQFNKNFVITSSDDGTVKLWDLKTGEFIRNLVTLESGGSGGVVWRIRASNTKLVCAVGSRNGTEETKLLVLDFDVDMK
UniProt O60934: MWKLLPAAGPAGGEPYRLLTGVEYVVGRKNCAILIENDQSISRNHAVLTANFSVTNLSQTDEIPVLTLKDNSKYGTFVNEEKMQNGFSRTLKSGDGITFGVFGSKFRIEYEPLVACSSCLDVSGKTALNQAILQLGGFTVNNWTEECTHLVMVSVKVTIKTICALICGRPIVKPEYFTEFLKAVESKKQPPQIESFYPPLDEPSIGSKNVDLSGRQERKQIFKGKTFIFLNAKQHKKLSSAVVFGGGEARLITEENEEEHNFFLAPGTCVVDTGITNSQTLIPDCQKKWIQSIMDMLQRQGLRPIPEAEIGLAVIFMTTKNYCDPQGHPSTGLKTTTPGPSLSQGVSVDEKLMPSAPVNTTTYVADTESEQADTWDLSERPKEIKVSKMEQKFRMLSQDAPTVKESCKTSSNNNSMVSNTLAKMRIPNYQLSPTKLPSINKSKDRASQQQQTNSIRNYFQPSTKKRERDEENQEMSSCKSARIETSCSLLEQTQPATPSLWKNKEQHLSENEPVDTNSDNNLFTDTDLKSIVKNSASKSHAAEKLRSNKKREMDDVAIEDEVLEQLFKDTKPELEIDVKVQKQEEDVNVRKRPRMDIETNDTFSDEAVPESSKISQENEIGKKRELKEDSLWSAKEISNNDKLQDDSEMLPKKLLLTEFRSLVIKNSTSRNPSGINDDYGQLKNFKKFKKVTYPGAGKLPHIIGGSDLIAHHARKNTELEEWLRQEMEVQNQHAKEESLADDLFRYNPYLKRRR
UniProt Q92878: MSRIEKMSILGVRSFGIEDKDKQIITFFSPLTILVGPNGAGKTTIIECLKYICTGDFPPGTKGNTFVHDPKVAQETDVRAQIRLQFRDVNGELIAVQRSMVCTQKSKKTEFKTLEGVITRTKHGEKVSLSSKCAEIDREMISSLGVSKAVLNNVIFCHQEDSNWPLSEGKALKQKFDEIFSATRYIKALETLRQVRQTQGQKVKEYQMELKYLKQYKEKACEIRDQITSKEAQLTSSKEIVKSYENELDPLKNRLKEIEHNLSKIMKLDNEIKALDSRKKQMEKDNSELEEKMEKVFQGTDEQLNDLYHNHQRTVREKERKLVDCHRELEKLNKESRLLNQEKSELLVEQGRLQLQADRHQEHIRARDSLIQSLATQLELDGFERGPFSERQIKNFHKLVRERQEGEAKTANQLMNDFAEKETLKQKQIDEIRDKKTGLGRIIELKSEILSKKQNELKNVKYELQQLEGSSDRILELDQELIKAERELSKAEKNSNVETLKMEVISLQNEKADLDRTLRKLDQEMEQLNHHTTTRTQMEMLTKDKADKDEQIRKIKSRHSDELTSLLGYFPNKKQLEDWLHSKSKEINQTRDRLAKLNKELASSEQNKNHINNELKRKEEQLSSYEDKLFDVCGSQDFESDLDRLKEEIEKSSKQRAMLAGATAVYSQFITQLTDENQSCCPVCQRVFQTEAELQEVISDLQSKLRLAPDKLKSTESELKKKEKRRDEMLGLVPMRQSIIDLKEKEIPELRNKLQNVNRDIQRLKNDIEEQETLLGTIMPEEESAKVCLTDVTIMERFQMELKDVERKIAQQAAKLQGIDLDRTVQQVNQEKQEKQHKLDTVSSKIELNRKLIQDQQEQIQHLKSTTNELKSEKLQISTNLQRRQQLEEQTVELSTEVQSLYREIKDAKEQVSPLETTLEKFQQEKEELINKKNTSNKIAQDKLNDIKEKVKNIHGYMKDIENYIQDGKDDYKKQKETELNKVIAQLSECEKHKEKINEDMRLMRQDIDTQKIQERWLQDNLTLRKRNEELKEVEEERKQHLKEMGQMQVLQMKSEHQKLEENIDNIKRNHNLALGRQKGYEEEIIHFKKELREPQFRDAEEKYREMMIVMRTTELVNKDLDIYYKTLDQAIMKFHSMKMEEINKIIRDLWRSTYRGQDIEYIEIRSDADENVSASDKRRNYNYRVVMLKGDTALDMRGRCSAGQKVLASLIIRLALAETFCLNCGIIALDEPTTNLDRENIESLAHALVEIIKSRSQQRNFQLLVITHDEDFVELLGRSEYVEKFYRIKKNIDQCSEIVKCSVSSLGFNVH
UniProt P53350: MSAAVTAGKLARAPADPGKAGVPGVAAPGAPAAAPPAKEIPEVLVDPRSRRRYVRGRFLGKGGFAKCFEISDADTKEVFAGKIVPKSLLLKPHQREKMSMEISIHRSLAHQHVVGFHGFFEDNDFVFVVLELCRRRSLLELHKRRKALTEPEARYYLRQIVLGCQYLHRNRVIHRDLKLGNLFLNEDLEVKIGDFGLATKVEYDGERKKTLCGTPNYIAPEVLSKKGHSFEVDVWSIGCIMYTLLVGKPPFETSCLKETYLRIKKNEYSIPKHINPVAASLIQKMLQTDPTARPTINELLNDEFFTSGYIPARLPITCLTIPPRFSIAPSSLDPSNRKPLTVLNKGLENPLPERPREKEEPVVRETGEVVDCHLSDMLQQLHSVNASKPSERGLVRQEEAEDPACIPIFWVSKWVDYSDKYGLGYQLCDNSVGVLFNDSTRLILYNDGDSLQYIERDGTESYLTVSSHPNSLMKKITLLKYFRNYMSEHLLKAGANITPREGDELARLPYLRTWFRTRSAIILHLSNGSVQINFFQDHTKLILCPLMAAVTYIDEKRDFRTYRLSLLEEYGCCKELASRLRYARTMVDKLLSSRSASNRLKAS

How the values were obtained:
[1] = biological target: FBXW7 (endogenous, U2OS) (human (endogenous in U2OS)) (UniProt Q969H0); assay: co-IP; nuclear extracts of untreated U2OS cells; endogenous FBXW7 immunoprecipitated with anti-FBXW7, normal rabbit serum as control; immunoblotting
[2] = biological target: NBS1 (endogenous, U2OS) (human (endogenous in U2OS)) (UniProt O60934); assay: co-IP; nuclear extracts (NE) of U2OS cells (also U2OS::HA FBXW7 cells) treated with ammonium chloride; immunoprecipitation with anti-NBS1 rabbit monoclonal antibody or normal rabbit serum; immunoblotting
[3] = biological target: NBS1 (endogenous, U2OS) (human (endogenous in U2OS)) (UniProt O60934); assay: co-IP; U2OS cells treated with ammonium chloride for 24 h; NP40 extracts; endogenous MRE11, NBS1 or RAD50 immunoprecipitated, normal mouse or rabbit sera as control; immunoblotting
[4] = biological target: RAD50 (endogenous, U2OS) (human (endogenous in U2OS)) (UniProt Q92878); assay: as above
[5] = biological target: T1, MRE11 (endogenous, U2OS) (human (endogenous in U2OS)) (UniProt P49959); assay: as above
T1 sequence: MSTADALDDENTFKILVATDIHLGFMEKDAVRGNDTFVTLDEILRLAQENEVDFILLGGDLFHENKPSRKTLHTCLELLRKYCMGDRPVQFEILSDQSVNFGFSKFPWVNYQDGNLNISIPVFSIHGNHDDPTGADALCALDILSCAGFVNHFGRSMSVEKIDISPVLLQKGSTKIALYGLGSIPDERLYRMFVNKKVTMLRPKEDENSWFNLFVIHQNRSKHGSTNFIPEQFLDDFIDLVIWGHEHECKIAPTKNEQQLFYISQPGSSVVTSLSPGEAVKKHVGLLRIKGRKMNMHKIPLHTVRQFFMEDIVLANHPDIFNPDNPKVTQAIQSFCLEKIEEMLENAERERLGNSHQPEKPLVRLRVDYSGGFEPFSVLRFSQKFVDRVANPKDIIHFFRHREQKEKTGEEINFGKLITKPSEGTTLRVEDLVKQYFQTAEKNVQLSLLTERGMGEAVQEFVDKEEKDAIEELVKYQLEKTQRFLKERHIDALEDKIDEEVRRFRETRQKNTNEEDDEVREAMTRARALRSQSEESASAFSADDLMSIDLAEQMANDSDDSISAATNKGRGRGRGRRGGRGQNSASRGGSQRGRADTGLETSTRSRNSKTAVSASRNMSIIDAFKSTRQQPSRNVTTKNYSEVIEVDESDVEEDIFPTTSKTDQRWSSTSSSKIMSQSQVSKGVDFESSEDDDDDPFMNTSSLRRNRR

[6] = biological target: NBS1 (endogenous, U2OS) (human (endogenous in U2OS)) (UniProt O60934); assay: co-IP; nuclear extracts of U2OS::HA FBXW7ΔF cells (dominant negative FBXW7) treated with ammonium chloride; immunoprecipitation with anti-NBS1; immunoblotting

binding [1]: binds
Substance: NBS1 (endogenous, U2OS) (from UniProt O60934 1-754)

binding [1]: binds
Substance: PLK1 (endogenous, U2OS) (from UniProt P53350 1-603)

binding [1]: binds
Substance: RAD50 (endogenous, U2OS) (from UniProt Q92878 1-1312)

binding [2]: binds | binding [3]: binds | binding [4]: binds | binding [5]: binds | binding [6]: binds weakly
Substance: p62/SQSTM1 (endogenous, U2OS) (from UniProt Q13501 1-440)
